From US20250288206A1, “SYSTEMS AND METHODS FOR MONITORING OF DELIVERY OF LABEL-FREE DRUGS” (City University of Hong Kong, priority 2024, published 2025)

Tests used:
[1] = CEST imaging of phantoms (Z-spectra at 3T); assay type: physicochemical; details: for Observed CEST Contrast Offset: solvent in HEPES buffered saline
[2] = Bloch-McConnell fitting of DMSO CEST peak; assay type: physicochemical; details: fitted value; B0 3T, B1 1.2 μT, Tsat 4 s
Protocol: During the course leading to the present invention, a series of internal and external factors that can influence DMSO's CEST effect were examined. DMSO's concentration linearly correlated with observed signal magnitude, while the change in signal when varying pH from pH 5.5 to pH 8 was less obvious. As temperature went down from 40° C. to 20° C., DMSO's CEST peak gradually moved upfield (please see FIGS. 1F to 1G). It appears that intermolecular interaction between DMSO and water was dependent on temperature. […] Exchange rate and was estimated with Bloch-McConnell fitting. Input of solute concentration was 1.41 M (molar concentration of 10% v/v DMSO) multiplied by a factor of 1.4, which was an estimation of concentration of “structured” water that formed by intermolecular interaction with DMSO and thereby served as relaying sites.

Molecule: CO [Methanol, methanol]
- Observed CEST Contrast Offset [1]: −1.4 ppm

Molecule: acetonitrile
- CEST peak offset [1]: around −2.5 ppm
- Observed CEST Contrast Offset [1]: −2.5 ppm

Molecule: C[S+](C)[O-] [DMSO, dimethyl sulfoxide]
- CEST peak offset [1]: around −2 ppm
- Observed CEST Contrast Offset [1]: −2 ppm
- DMSO T2b [2]: 0.4607 s

Molecule: 1-propanol
- Observed CEST Contrast Offset [1]: −3.8 ppm

Molecule: O=C1CC(=O)NC(=O)N1 [BA, barbituric acid, reference compound]
- CEST peak offset [1]: 5 ppm

Molecule: acetone
- CEST peak offset [1]: around −2.5 ppm
- Observed CEST Contrast Offset [1]: −2.5 ppm

Molecule: CCO [Ethanol, ethanol]
- Observed CEST Contrast Offset [1]: −3.6 ppm

Molecule: CC(C)O [2-Propanol (Isopropanol), 2-propanol]
- Observed CEST Contrast Offset [1]: −3.6 ppm
